Results are given in words; binding and its absence hold for the method and conditions named. Binding seen in cells or lysates may run through a third protein. Some entries that bind do so weakly or less than the wild type. For some of these results: Sequences can lack the tags named with a protein. Each block holds one binder with its values, some of them ahead of it.
What was measured:
HA-SMAD3 = HA-SMAD3 (UniProt P84022); assay: co-IP; co-expression in HEK293T for 48 h; lysis in non-denaturing buffer (50 mM HEPES pH 7.4, 150 mM NaCl, 1% Triton X-100, 0.5% sodium deoxycholate); immunoprecipitation with HA or V5 antibody at 4°C; three washes in the buffer and one with 500 mM NaCl; immunoblot
HA-TRIM27 = molecular target: T1, HA-TRIM27 (UniProt P14373); assay: as above
T1 sequence: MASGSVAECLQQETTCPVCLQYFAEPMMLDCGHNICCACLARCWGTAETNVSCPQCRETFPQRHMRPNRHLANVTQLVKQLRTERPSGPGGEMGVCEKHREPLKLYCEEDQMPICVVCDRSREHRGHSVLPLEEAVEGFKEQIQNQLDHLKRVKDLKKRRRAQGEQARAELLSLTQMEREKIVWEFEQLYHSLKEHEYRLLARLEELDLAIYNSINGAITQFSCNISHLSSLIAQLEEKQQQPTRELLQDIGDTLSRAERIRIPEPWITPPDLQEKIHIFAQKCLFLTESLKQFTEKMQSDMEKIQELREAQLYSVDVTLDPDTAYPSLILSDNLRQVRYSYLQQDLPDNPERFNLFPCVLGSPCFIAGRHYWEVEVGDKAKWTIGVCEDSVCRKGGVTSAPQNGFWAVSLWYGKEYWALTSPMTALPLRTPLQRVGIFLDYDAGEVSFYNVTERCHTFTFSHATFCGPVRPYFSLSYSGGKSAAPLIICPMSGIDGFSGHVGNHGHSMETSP

Protein sequences, listed by entry. Tags and fused reporters are not part of them.
UniProt P84022: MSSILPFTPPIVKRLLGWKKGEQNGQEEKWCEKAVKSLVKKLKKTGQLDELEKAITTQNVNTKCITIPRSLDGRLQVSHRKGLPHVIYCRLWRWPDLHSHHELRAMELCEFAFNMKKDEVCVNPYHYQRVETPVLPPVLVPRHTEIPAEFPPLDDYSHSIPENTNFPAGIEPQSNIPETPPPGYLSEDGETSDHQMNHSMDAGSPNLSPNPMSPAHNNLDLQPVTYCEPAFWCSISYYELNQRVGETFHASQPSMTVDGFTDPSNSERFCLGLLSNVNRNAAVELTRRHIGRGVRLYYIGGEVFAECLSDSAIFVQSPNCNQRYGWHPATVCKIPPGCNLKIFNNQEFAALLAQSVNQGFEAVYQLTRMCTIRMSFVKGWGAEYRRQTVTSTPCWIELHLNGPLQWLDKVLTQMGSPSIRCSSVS
UniProt Q13485: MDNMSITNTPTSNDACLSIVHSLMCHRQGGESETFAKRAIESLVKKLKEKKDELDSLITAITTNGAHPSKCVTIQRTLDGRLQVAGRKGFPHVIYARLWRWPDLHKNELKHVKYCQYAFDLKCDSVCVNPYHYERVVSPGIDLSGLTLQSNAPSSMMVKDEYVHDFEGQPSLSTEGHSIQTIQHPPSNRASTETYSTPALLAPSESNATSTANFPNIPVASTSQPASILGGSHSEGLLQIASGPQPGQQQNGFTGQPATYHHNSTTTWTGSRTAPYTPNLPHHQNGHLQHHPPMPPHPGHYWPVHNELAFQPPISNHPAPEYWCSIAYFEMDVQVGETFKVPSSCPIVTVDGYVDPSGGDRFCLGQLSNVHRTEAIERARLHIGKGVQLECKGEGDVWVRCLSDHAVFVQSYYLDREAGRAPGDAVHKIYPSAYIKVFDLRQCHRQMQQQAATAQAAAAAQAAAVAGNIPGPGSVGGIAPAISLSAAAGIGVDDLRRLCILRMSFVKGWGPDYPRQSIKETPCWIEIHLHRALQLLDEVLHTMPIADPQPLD

ZNF446-V5 = molecular target: T2, ZNF446-V5 (UniProt Q9NWS9); assay: as above
T2 sequence: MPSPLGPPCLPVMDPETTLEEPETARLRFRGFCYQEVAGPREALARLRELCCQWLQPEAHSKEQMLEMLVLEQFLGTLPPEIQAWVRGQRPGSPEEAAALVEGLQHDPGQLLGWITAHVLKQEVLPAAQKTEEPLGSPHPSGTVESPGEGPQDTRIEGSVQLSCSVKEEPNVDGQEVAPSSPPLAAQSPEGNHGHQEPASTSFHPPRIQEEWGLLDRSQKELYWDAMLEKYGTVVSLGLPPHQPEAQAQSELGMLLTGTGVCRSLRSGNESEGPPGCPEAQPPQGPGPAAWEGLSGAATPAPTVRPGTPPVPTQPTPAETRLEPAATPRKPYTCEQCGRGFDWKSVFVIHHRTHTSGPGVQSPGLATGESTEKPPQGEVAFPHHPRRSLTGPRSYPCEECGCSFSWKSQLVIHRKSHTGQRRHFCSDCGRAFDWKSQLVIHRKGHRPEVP

[1] = molecular target: T3, endogenous TRIM27 (human (endogenous in SUM159)) (UniProt P14373); assay: proximity ligation; Duolink PLA with V5 and TRIM27 antibodies in fixed SUM159 cells stably expressing ZNF165-V5; parental SUM159 cells as negative control; foci per nucleus
T3 sequence: T1 sequence

[2] = molecular target: phosphorylated SMAD3 (Ser423/425) (human (endogenous in SUM159)) (UniProt P84022); assay: co-IP; ChIP followed by immunoblot: SUM159 cells stably expressing ZNF165-V5, cross-linked with 1% formaldehyde, sheared chromatin precipitated with antibody against phosphorylated SMAD3 (Ser423/425) or IgG
[3] = molecular target: endogenous SMAD3 (human (endogenous in SUM159)) (UniProt P84022); assay: proximity ligation; Duolink PLA with antibodies against the two endogenous proteins in fixed SUM159 cells; either antibody alone as negative control; pre-treatment with 20 μM SB-431542 or DMSO for 15 min, then 5 ng/mL TGFβ for 30 min; foci per nucleus
[4] = molecular target: endogenous SMAD4 (human (endogenous in SUM159)) (UniProt Q13485); assay: as above
[5] = molecular target: T4, endogenous ZNF165 (human (endogenous in SUM159)) (UniProt P49910); assay: co-IP; SUM159 nuclear lysates (RIPA buffer, sonication) immunoprecipitated overnight at 4°C with antibody against endogenous ZNF165 or IgG; immunoblot
T4 sequence: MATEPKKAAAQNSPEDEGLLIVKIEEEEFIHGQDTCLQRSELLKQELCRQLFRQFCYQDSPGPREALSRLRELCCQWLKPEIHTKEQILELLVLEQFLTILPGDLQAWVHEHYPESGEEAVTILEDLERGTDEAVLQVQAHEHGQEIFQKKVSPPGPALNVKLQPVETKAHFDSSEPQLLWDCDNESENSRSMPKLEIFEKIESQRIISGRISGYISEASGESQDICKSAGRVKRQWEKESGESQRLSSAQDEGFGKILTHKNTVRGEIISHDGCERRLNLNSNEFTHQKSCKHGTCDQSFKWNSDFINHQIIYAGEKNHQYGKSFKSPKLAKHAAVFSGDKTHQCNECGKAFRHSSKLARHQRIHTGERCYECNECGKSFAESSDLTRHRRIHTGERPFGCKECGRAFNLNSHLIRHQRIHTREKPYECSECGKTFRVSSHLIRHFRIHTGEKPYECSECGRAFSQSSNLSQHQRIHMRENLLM

binding (HA-SMAD3): binds
binding (HA-TRIM27): binds
binding (ZNF446-V5): binds
B1: ZNF165-myc (protein, UniProt P49910 1-485)
chain: T4 sequence

B2: ZNF165-V5 (protein, UniProt P49910 1-485)
chain: T4 sequence
binding [1]: binds
binding [2]: binds

binding [3]: binds
binding [4]: binds
B3: endogenous ZNF165 (protein, UniProt P49910 1-485)
chain: T4 sequence

binding [3]: binds
binding [4]: binds
B4: endogenous TRIM27 (protein, UniProt P14373-1 1-513)
chain: T1 sequence

binding [5]: binds
binding [3]: binds
binding [4]: binds
B5: endogenous ZNF446 (protein, UniProt Q9NWS9 1-450)
chain: T2 sequence

binding (HA-TRIM27): binds
B6: ZNF446-V5 (protein, UniProt Q9NWS9 1-450)
chain: T2 sequence

Reference: publication PMC7302877
